Laboratory results from US20140329706A1, “AFFINITY TAGS, AND RELATED AFFINITY LIGANDS, ENGINEERED PROTEINS, MODIFIED SUPPORTS, COMPOSITIONS, METHODS AND SYSTEMS” (CALIFORNIA INSTITUTE OF TECHNOLOGY, priority 2013, published 2014).
Results are given in words; binding and its absence hold for the method and conditions named. Some entries that bind do so weakly or less than the wild type.

Chains of the proteins cited; added tags and fusions are not shown. A line that says so, or that is headed by a name, gives the form on record, which may keep a tag or linker. Residues count along the entry.
DasherGFP with N-terminal PSD-95 PDZ2 domain tag (Type C) (Q62108, residues 160-246): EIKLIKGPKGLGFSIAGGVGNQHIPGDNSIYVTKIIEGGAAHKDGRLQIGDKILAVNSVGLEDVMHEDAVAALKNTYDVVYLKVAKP
PDZ3 domain of PSD-95 (Q62108, residues 313-393): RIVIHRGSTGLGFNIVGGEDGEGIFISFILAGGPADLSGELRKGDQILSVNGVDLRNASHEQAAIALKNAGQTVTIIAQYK
UniProt Q792Q4: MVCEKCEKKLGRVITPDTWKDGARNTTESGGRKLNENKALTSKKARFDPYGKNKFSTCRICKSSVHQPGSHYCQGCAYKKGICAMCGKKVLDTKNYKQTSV

Key:
[1] = target: T1, NR2B (GluN2B) peptide ligand …; test: affinity chromatography on … peptide resin, SIESDV peptide elution, SDS-PAGE
T1 sequence (peptide): GAGSSIESDV

[2] = target: PDZ3 domain of PSD-95 (UniProt Q62108); test: affinity chromatography on PSD-95 PDZ3 resin with 0 or 5 mM TCEP, YKQTSV peptide elution, SDS-PAGE

Row | Substance | binding [1] | binding [2]
1 | MBP-PDZ2 tag-GST (from UniProt Q62108 160-246) | binds | –
2 | LacZ with N-terminal PSD-95 PDZ2 domain tag (Type C) (from UniProt Q62108 160-246) | binds | –
3 | PDZ2 domain of PSD-95 (from UniProt Q62108 160-246) | binds | –
4 | MBP-PDZ2 tag (from UniProt Q62108 160-246) | binds | –
5 | PDZ2 tag-MBP (from UniProt Q62108 160-246) | binds | –
6 | DasherGFP with N-terminal PSD-95 PDZ2 domain tag (Type C) (from UniProt Q62108 160-246) | binds | –
7 | CRIPT (Rattus norvegicus, AA 1-101) (from UniProt Q792Q4 1-101) | – | binds
